The results in this text go back to publication PMC11110256.

Amino acid sequences for entries named in this document (tags omitted).
UniProt O35129: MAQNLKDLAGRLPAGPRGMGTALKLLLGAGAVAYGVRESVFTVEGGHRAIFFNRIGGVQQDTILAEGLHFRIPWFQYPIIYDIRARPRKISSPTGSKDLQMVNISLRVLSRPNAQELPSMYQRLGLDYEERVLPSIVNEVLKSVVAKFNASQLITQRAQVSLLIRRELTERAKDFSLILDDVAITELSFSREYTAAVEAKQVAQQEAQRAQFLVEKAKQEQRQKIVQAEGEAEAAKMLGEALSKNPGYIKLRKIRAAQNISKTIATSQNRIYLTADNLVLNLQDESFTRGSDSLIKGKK

These are yes or no findings as the source states them, for the method shown. In cells and extracts the contact can be indirect. These calls come from enrichment with a bait or labelling near it, and not all partners need be listed.

In the assay the target is T1, UBX domain-containing protein 1 (UBXN1), immunoprecipitated from mouse Hepa1-6 cells (UniProt Q922Y1).
T1 sequence: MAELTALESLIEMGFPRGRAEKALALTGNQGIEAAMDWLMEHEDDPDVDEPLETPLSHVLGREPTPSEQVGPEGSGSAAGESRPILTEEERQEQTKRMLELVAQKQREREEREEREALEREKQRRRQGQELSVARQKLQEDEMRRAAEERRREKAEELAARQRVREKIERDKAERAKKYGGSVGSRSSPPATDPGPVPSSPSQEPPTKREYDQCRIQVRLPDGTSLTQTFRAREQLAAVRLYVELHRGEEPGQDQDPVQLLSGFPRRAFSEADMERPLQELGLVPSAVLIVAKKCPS
The assay can be described thus: affinity purification with mass spectrometry; UBXN1 immunoprecipitated from lysates of MHCC97H and Hepa1-6 cells, SDS-PAGE, Coomassie stain, LC-MS/MS; hits with unique peptides > 2 in both cell lines.

As for “Prohibitin 2 (PHB2), in mouse Hepa1-6 cells (from UniProt O35129 1-299)”, the binding entry is listed as “binds”.

B1: Prohibitin (PHB), in mouse Hepa1-6 cells (protein, UniProt P67778 1-272)
chain: MAAKVFESIGKFGLALAVAGGVVNSALYNVDAGHRAVIFDRFRGVQDIVVGEGTHFLIPWVQKPIIFDCRSRPRNVPVITGSKDLQNVNITLRILFRPVASQLPRIYTSIGEDYDERVLPSITTEILKSVVARFDAGELITQRELVSRQVSDDLTERAATFGLILDDVSLTHLTFGKEFTEAVEAKQVAQQEAERARFVVEKAEQQKKAAIISAEGDSKAAELIANSLATAGDGLIELRKLEAAEDIAYQLSRSRNITYLPAGQSVLLQLPQ
For the molecule B1, the binding entry is “binds”.
